# Primary screen of a compound library

Mtb glucose medium: 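Growth of Mycobacterium tuberculosis over 3 days (7H9 medium with glucose and tyloxapol); the read-out is not stated. Tested at 50 µM. The record gives no direction; compounds that gave an IC50 in retests scored well above the rest, so higher reads as more growth inhibition. About 69,000 compounds were tested under these conditions; 1.1% (about 760) showed 50% or more at least once.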
Mtb cholesterol medium: 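Phenotypic screen: M. tuberculosis growth, cholesterol and DPPC medium, 4 days; the read-out is not stated. Concentration: 50 µM. Direction is inferred from retests: higher values go with more growth inhibition. Size under these conditions: about 69,000 compounds, about 370 of them at 50% or above in at least one test.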

Each number is a percent effect as filed.
The controls that fix the scale are not given in the record; negative values are as filed.
Compounds were drawn at random from those tested, without regard to their results.
Two or more numbers in one place are separate tests of the same structure; such repeats can differ widely.

| SMILES | Mtb glucose medium | Mtb cholesterol medium |
|---|---|---|
| `O=C(c1ncc[nH]1)N1CCC(n2cc(-c3cccc(Cl)c3)nn2)CC1` | 19.44 | -26.93 |
| `Cc1nn(CC(=O)N2CCN(Cc3cccnc3)CC2)c(C)c1Cl` | -14.45 | -10.18 |
| `CS(=O)(=O)NC1CCCN(C(=O)NCc2cccc(F)c2)C1` (configuration not stated) | 20.88 | 9.681 |
| `CC(C)c1ncncc1C(=O)N1CCN(Cc2cccnc2)CC1` | 5.393 | 16.3 |
| `CCCNC(=O)[C@@H]1CCCN1[C@@H](C(=O)NC)C1CC1.Cl` | -7.533 & -5.812 | -14.81 |
| `Cc1nc(-c2ccc(Cl)s2)sc1C(=O)NCCS(N)(=O)=O` | 4.931 | 8.823 |
| `COc1cc(NCCNC(=O)c2cscc2C)cc(OC)c1` | 11.05 & 16.16 | -0.995 |
| `CN1CCOC(CNCCCOc2ccc(C#N)cc2)C1` (configuration not stated) | 20.83 | 3.338 |
| `CCS(=O)(=O)N(C)C1CCN(Cn2ccc(-c3ccc(F)cc3)n2)CC1` | 10.77 & 6.722 | -1.952 |
| `O=C(NCc1ccco1)N(CCCO)C1CCCc2ccccc21` (configuration not stated) | -2.988 | -23.5 |
| `N#Cc1cccc(S(=O)(=O)N2CCCCC2CCN2CCCC2=O)c1` (configuration not stated) | 13.42 | -7.811 |
| `Cc1nsc(NC(=O)N2CCCCC2CCO)n1` (configuration not stated) | -14.94 | -10.76 |
| `CS(=O)(=O)Cc1cccc(C(=O)NCC2Cc3ccccc3O2)c1` (configuration not stated) | -23.4 & 0.6735 | -10.88 |
| `Cc1csc(N2CCN(CC(=O)N3CCCC3)CC2C)n1` (configuration not stated) | 13.57 | 2.469 |
| `O=C(O)C(F)(F)F.[H][C@@]12CN(C(=O)N(C)C)CCC[C@]1(C(=O)N(C)C)CN(c1ccccn1)C2` | 3.091 | -0.7858 |
| `[H][C@@]12CCN(C(=O)c3ccsc3)C[C@@]1([H])O[C@H](c1nnc(C3CC3)o1)C2` | 25.7 | 1.879 |
| `CCn1nc(C)c(NC(=O)CCn2ncc3cc(C)ccc32)c1C` | 10.72 | -17.25 |
| `Cc1c[nH]c(C(=O)N2CCC(c3nnc(CN(C)CCO)n3C)CC2)c1` | -30.71 | -10.91 & 5.633 |
| `COc1cccc2c1OCC(C(=O)NCCc1nnc(C)s1)C2` (configuration not stated) | 8.834 & 0.2086 | 11.09 |
| `Cc1nc(C(=O)N2CCCC(c3nc(C(C)C)cs3)C2)c[nH]1` (configuration not stated) | -4.972 & 19.4 | 1.595 |
| `O=C(NCC1CCCO1)c1nc2c(s1)CCCN2CC1CC1` (configuration not stated) | -29.48 | -5.864 |
| `COc1cccc(COCC(=O)N2CCCC(c3cc(C)[nH]n3)C2)c1` (configuration not stated) | 3.177 | -10.74 |
| `Cc1cnn(CC(C)NCc2csc(-c3ccco3)n2)c1` (configuration not stated) | -15.46 | -7.596 |
| `COc1ccccc1C(O)Cn1cc(C(=O)NCc2ccco2)nn1` (configuration not stated) | 6.189 & -13.87 | 3.388 |
| `CC(=O)N1CCCCCC1C1CCN(Cc2nnc(C(C)(C)C)o2)CC1.Cl` (configuration not stated) | -24.63 | -19.82 |
| `NC(=O)N1CCCC(C(=O)NCc2ccccc2OC(F)(F)F)C1` (configuration not stated) | -5.826 | 3.354 & 0.6634 |
| `CCOCC1CN(c2ccncn2)Cc2cnn(CC)c21.O=C(O)C(F)(F)F.O=C(O)C(F)(F)F` (configuration not stated) | -11.32 | 0.006444 |
| `CN(C)CCOCC1CN(Cc2ccc(F)cc2)Cc2nnn(C)c21.O=C(O)C(F)(F)F.O=C(O)C(F)(F)F` (configuration not stated) | 14.22 | 21.4 |
| `CC(NC(=O)NC1CCN(CC2CCCC2)CC1)c1nccs1` (configuration not stated) | 12.26 & -18.14 | -0.4219 |
| `CCCN(CCC)S(=O)(=O)NC(C)C(=O)N(C)C` (configuration not stated) | 6.683 & 7.427 | 4.128 |
| `COCC(=O)N1CCCC(C(=O)c2cnn(-c3ccc(F)cc3)c2N)C1` (configuration not stated) | -33.58 | -21.44 & -13.87 |
| `CC(C)(C)c1ccc(-c2n[nH]c3c2CN(CC2CCOC2)CC3)cc1` (configuration not stated) | 31.19 | 16.97 |
| `COc1ccc(C(O)CNC(=O)NCc2csc(C)n2)cc1` (configuration not stated) | -6.249 | -13.17 |
| `Cc1noc(CCCC(=O)N(CCC(=O)O)Cc2ccc(F)c(F)c2)n1` | 8.916 | -2.824 |
| `CC1=Nc2c(c(=O)[nH]n2C(C)C)C(c2ccc3nccnc3c2)S1` (configuration not stated) | 1.649 | 0.2877 |
| `CCN1CC(NC(=O)Nc2nc(C)n(C(C)C)n2)CC1=O` (configuration not stated) | -17.53 | -21.37 |
| `[H][C@@]12COC[C@]1(COCc1cccc(C)n1)CN(c1ncccn1)C2` | 17.97 | 0.1768 |
| `Cc1ccc(-c2nc(CN3CCOCS3(=O)=O)c(C)o2)cc1` | 48.21 & -3.954 | 9.672 |
| `COc1cc(C(=O)N2CCCC2CC(=O)c2cnn(C)c2)ccc1F` (configuration not stated) | 4.753 & 3.286 | 0.879 |
| `COCc1ccc(C(=O)N2CCCN(c3ccc(F)cc3)CC2)s1` | 9.309 | 24.41 |
| `O=C(NCCCNC(=O)c1ccc(F)cc1F)c1cccc(O)c1` | 33.7 | 8.262 |
| `Cc1ccc(NC(=O)Nc2c(O)oc3ccccc3c2=O)cc1` | -30.83 | -25.22 |
| `CNc1nc(C(=O)NCc2cccnc2N(C)C2CCCCC2)cs1` | 0.1938 & 5.646 | -10.55 |
| `FC(F)(F)c1ccc2nc([C@H]3CCN(C4CCC4)C3)[nH]c2c1` | 32.85 & 3.753 | 14.15 |
| `Cc1csc(N2CCCN(C3Cc4ccccc4C3)CC2)n1` | 2.73 & -22.04 | -13.05 |
| `CN(CCNC(=O)NCc1ccsc1)C1CCCC1` | 3.442 | -25.95 |
| `CC(C)(C)c1nccc(C2(c3ccccc3Cl)CCNCC2)n1` | 17.96 | -1.736 |
| `CS(=O)(=O)N1Cc2ccccc2CC2(CCN(Cc3ccccc3)C2)C1` (configuration not stated) | -4.761 | -2.937 |
| `CCc1n[nH]c(C2CN(C(=O)c3ccc4c(c3)CCC4)CCO2)n1` (configuration not stated) | 38.56 | 11.21 |
| `Cc1cccc(CN2Cc3[nH]nc(COc4cccnc4)c3C2)n1.O=C(O)C(F)(F)F.O=C(O)C(F)(F)F.O=C(O)C(F)(F)F` | 1.503 & -7.06 | -15.32 |
| `Cc1ccc(CNC(=O)c2ccc(F)cc2)o1` | 51.73 & 48.4 | 39.38 |
| `CCc1nc(CN(C)C2CCCN(c3cccnn3)C2)no1` (configuration not stated) | 0.3384 | -15.76 |
| `CN(C)CC1CN(Cc2nnc(-c3ccccc3Cl)o2)CCO1` (configuration not stated) | -20.46 | -50.46 |
| `CC(C)c1cc(NC(=O)Cn2ccc(=O)c3ccccc32)[nH]n1` | -1.82 | -9.677 |
| `Cc1ccc(CN2CCn3c(CNS(C)(=O)=O)nnc3C2)s1` | -21.67 | -7.966 & -1.716 |
| `NS(=O)(=O)CCNC(=O)C1(c2ccccc2)CC1` | 10.47 & -5.765 | 0.8342 |
| `Cn1c(=O)cc(C(=O)NC(Cc2ccsc2)c2cccnc2)[nH]c1=O` (configuration not stated) | -19.96 | 1.628 |
| `CN1CCCN(C(=O)NCc2cccnc2-n2cccn2)CC1` | 12.88 | 15.93 |

Source: ChEMBL document CHEMBL3988442, “University of Dundee, Small-Polar-MMV Screening Library” (2021).